Assay results taken from patent US5416191A, “Bradykinin antagonists” (Cortech, Inc., priority 1993, dated 1995).
Part of at least one peptide drawing is inferred or uncertain, most often the ends. Numbered stars: 1 amine (or outer) side, 2 acyl side, 3 side chain; on linkers, the order of the positions; unused ones are H or OH. Bridge positions count the residues as written; N and C are the ends. Square brackets hold non-standard residues; d marks the D form. Peptide text beside a SMILES is read from it. I, II: the chains in the order shown. BMH = O=C1CC([*:1])C(=O)N1CCCCCCN1C(=O)CC([*:2])C1=O; Oic = O=C(O)[C@@H]1C[C@@H]2CCCC[C@@H]2N1; Hyp = O=C(O)[C@@H]1C[C@@H](O)CN1; dTic = O=C(O)[C@H]1Cc2ccccc2CN1

Columns and labels:
[1] = biological target: T1, bradykinin receptor of the B2 class (guinea-pig ileum) (Cavia porcellus, UniProt O70526); conditions: Table B; Cys position scan, monomers and BMH dimers
T1 sequence (O70526 1-372): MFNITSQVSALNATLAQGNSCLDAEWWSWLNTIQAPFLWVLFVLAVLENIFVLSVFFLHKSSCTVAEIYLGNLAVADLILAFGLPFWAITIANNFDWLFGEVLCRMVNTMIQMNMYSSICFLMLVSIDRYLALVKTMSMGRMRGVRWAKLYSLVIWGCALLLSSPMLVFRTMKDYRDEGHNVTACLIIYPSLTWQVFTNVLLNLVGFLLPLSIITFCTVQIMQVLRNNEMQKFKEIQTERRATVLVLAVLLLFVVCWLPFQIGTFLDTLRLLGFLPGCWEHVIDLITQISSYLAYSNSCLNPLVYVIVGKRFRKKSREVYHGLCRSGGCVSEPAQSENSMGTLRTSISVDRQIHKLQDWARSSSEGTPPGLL

[2] = biological target: T2, bradykinin receptor of the B2 class (rat uterus) (Rattus norvegicus, UniProt P25023); experiment: Rat uterus (RU) in vitro, antagonism of bradykinin
T2 construct: concentration effect curves to bradykinin (BK) on rat uterus in vitro; from tissue; host or cells: rat uterus
T2 sequence (P25023 1-396): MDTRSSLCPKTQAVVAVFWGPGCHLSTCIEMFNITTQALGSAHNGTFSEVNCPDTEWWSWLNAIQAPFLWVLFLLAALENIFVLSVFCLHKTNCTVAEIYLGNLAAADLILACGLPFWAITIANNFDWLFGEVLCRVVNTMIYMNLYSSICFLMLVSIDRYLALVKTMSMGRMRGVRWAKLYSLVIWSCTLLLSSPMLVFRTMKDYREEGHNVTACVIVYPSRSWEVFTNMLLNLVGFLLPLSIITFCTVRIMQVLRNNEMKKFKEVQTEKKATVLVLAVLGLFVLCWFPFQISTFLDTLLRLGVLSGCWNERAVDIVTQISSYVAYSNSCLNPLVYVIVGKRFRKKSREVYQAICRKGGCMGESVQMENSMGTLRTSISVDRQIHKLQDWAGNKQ
Procedure: Thus in vitro studies were performed on standard assay systems, namely, guinea-pig ileum (GPI), rat uterus (RU) and rabbit jugular vein (RJV). […] The PA2 can be defined as the negative logarithm of the molar concentration of the antagonist in the presence of which the potency of the agonist is reduced two-fold, i.e. twice the amount of agonist is required to produce a given response in the presence of, than in the absence of, the antagonist. A high potency of antagonism is indicated by a high PA2 value, i.e., a low concentration of antagonist is effective.
The percentage recovery (% Rec) was also determined for compounds with respect to each assay.
With respect to duration of activity, it is noted that after exposure to the highest concentration of antagonist, each tissue was washed extensively and then assessed for recovery from the antagonist effect.
Potency in the rat uterus assay was assessed as described above and PA2 values determined.

[3] = biological target: T3, B1 -receptor (rabbit aorta) (Oryctolagus cuniculus, UniProt P48748); experiment: Rabbit aorta in vitro, reversal of des-Arg9-BK contraction; conditions: Table G; negative log molar concentration causing 50% reversal of 10^-7 M des-Arg9-BK contraction
T3 construct: from tissue; host or cells: rabbit aorta
T3 sequence (P48748 1-352): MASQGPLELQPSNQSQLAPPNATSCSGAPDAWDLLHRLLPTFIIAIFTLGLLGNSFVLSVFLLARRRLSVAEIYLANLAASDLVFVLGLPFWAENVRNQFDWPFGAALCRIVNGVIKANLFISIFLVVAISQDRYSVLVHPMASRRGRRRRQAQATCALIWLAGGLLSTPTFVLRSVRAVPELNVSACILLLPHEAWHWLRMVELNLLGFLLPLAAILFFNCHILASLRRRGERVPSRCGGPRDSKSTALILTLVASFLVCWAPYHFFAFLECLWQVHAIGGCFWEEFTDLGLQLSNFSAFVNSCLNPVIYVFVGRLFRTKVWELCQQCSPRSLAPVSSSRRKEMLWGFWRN

[4] = Table G, heterodimers, against BK

SMILES	pA2 GUINEA PIG ILEUM [1]	RAT UTERUS pA2 ([2]; Table F)	RAT UTERUS pA2 [2, 4]	RABBIT AORTA IC50 [3]
CC(C)C[C@H](NC(=O)[C@@H](Cc1ccccc1)NC(=O)[C@H](CO)NC(=O)[C@H](Cc1ccccc1)NC(=O)CNC(=O)[C@@H]1C[C@@H](O)CN1C(=O)[C@@H]1CCCN1C(=O)[C@H](CCCNC(=N)N)NC(=O)[C@H](N)CCCNC(=N)N)C(=O)N[C@@H](CCCNC(=N)N)C(=O)O [CP-0088, dARG^0 -Arg^1 -Pro^2 -Hyp^3 -Gly^4 -Phe^5 -Ser^6 -(d)Phe^7 -Leu^8 -Arg^9, reference compound] (HELM PEPTIDE1{[dR].R.P.[Hyp].G.F.S.[dF].L.R}$$$$V2.0)	≈ 6.6	–	–	–
N=C(N)NCCC[C@@H](N)C(=O)N[C@@H](CCCNC(=N)N)C(=O)N1CCC[C@H]1C(=O)N1C[C@H](O)C[C@H]1C(=O)NCC(=O)N[C@@H](Cc1ccccc1)C(=O)N[C@@H](CSC1CC(=O)N(CCCCCCN2C(=O)CC(SC[C@H](NC(=O)[C@H](Cc3ccccc3)NC(=O)CNC(=O)[C@@H]3C[C@@H](O)CN3C(=O)[C@@H]3CCCN3C(=O)[C@H](CCCNC(=N)N)NC(=O)[C@H](N)CCCNC(=N)N)C(=O)N[C@H](Cc3ccccc3)C(=O)N[C@@H](Cc3ccccc3)C(=O)N[C@@H](CCCNC(=N)N)C(=O)O)C2=O)C1=O)C(=O)N[C@H](Cc1ccccc1)C(=O)N[C@@H](Cc1ccccc1)C(=O)N[C@@H](CCCNC(=N)N)C(=O)O (stereo partly drawn) [CP-0215] (HELM PEPTIDE1{[dR].R.P.[Hyp].G.F.C.[dF].F.R}|PEPTIDE2{[dR].R.P.[Hyp].G.F.C.[dF].F.R}|CHEM1{[O=C1CC([*:1])C(=O)N1CCCCCCN1C(=O)CC([*:2])C1=O]}$PEPTIDE1,CHEM1,7:R3-1:R1|PEPTIDE2,CHEM1,7:R3-1:R2$$$V2.0)	–	8.2	–	–
CC(C)C[C@H](NC(=O)[C@@H](Cc1ccccc1)NC(=O)[C@H](CSC1CC(=O)N(CCCCCCN2C(=O)CC(SC[C@H](NC(=O)[C@H](Cc3ccccc3)NC(=O)CNC(=O)[C@@H]3C[C@@H](O)CN3C(=O)[C@@H]3CCCN3C(=O)[C@H](CCCNC(=N)N)NC(=O)[C@H](N)CCCNC(=N)N)C(=O)N3Cc4ccccc4C[C@@H]3C(=O)N3[C@H](C(=O)N[C@@H](CCCNC(=N)N)C(=O)O)C[C@@H]4CCCC[C@@H]43)C2=O)C1=O)NC(=O)[C@H](Cc1ccccc1)NC(=O)CNC(=O)[C@@H]1C[C@@H](O)CN1C(=O)[C@@H]1CCCN1C(=O)[C@H](CCCNC(=N)N)NC(=O)[C@H](N)CCCNC(=N)N)C(=O)O (stereo partly drawn) [CP-0272] (I: H-[dR]RP[Hyp]GFC[dTic][Oic]R-OH / II: H-[dR]RP[Hyp]GFC[dF]L-OH; linker I:7-II:7 via BMH)	–	–	8.5	5.4 ± 0.2
CC(C)C[C@H](NC(=O)[C@@H](Cc1ccccc1)NC(=O)[C@H](CSC1CC(=O)N(CCCCCCN2C(=O)CC(SC[C@H](NC(=O)[C@H](Cc3ccccc3)NC(=O)CNC(=O)[C@@H]3C[C@@H](O)CN3C(=O)[C@@H]3CCCN3C(=O)[C@H](CCCNC(=N)N)NC(=O)[C@H](N)CCCNC(=N)N)C(=O)N[C@H](Cc3ccccc3)C(=O)N[C@@H](CC(C)C)C(=O)N[C@@H](CCCNC(=N)N)C(=O)O)C2=O)C1=O)NC(=O)[C@H](Cc1ccccc1)NC(=O)CNC(=O)[C@@H]1C[C@@H](O)CN1C(=O)[C@@H]1CCCN1C(=O)[C@H](CCCNC(=N)N)NC(=O)[C@H](N)CCCNC(=N)N)C(=O)O (stereo partly drawn) [CP-0273] (HELM PEPTIDE1{[dR].R.P.[Hyp].G.F.C.[dF].L.R}|PEPTIDE2{[dR].R.P.[Hyp].G.F.C.[dF].L}|CHEM1{[O=C1CC([*:1])C(=O)N1CCCCCCN1C(=O)CC([*:2])C1=O]}$PEPTIDE1,CHEM1,7:R3-1:R1|PEPTIDE2,CHEM1,7:R3-1:R2$$$V2.0)	–	–	8.1	5.5 ± 0.1
